Test results from patent publication US20100034831A1 (DOMANTIS, published 2010).
Residue numbers refer to the chain shown, from its start. Results are given in words; binding and its absence hold for the method and conditions named. Some entries that bind do so weakly or less than the wild type. For part of these data: Where a sequence is shown, tags or fusion partners need not be part of it. Blank lines part the entries; values can stand above or below the binder they belong to.

The chains behind the UniProt entries cited, without tags or fusion partners. Where a name states a change or a piece, a line headed by the entry shows the natural chain unless it says otherwise. A line that says so, or that is headed by a name, gives the form on record, which may keep a tag or linker.
cynomolgus TNFR1 on cynomolgus embryo skin fibroblast cells (cynomolgus (Macaca fascicularis)) (Q2PFV5, form named): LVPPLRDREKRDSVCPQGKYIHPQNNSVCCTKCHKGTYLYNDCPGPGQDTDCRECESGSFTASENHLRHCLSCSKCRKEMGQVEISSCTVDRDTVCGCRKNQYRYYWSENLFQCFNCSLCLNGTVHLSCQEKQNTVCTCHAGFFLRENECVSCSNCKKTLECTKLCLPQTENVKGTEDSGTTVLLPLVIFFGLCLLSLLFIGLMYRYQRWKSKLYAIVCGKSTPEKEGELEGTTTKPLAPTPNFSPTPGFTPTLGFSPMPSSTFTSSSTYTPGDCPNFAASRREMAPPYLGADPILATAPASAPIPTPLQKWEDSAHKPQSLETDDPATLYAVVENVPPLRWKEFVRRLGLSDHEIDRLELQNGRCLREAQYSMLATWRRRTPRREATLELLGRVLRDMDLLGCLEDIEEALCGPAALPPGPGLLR

Key:
[1] = target: cynomolgus TNFR1 on cynomolgus embryo skin fibroblast cells (cynomolgus (Macaca fascicularis)) (UniProt Q2PFV5); test: concluded from the cell-based IL-8 release assay on cynomolgus fibroblasts
[2] = target: T1, mTNFR/Fc (R&D systems) (mouse) (UniProt P25118); test: ELISA, plate coated with mTNFR/Fc, DOM1m standard or sample added
T1 sequence (looked up): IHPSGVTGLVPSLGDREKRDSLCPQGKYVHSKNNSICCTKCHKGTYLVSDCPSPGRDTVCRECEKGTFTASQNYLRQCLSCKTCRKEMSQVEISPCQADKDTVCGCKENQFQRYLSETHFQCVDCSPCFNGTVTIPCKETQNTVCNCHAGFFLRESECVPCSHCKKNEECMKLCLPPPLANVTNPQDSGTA

binding [1]: binds
B1: TAR2h-131-511 (protein)
chain: EVQLLESGGGLVQPGGSLRLSCAASGFTFAHETMVWVRQAPGKGLEWVSHIPPVGQDPFYADSVKGRFTISRDNSKNTLYLQMNSLRAEDTAVYYCALLPKRGPWFDYWGQGTLVTVSS

binding [1]: binds
B2: TAR2h-131-117 (protein)
chain: B1 chain with P52D, P53R, F59Y, K65E, L98V

binding [2]: binds
B3: TAR2m-21-23 (anti-TNFR1 dAb monomer) (other)
VH: EVQLLESGGGLVQPGGSLRLSCAASGFTFNRYSMGWLRQAPGKGLEWVSRIDSYGRGTYYEDPVKGRFSISRDNSKNTLYLQMNSLRAEDTAVYYCAKISQFGSNAFDYWGQGTQVTVSS
